Laboratory results: paper doi:10.1101/2025.05.23.655724
No constants are given. Whether binding was seen depends on the method and setting. Binding seen in cells or lysates may run through a third protein. Here binding means that the protein was enriched with, or labelled near, the bait; the list need not be complete.

Target: C-terminally Myc-FLAG-tagged murine dermokine β (mouse)
Test: affinity purification with mass spectrometry

B1: wildtype (wt) murine meprin α (enzyme, UniProt P28825 65-747)
chain: NAMRDPSSRWKLPIPYILADNLELNAKGAILHAFEMFRLKSCVDFKPYEGESSYIIFQKLSGCWSMIGDQQVGQNISIGEGCDFKATIEHEILHALGFFHEQSRTDRDDYVNIWWDQIITDYEHNFNTYDDNTITDLNTPYDYESLMHYGPFSFNKNESIPTITTKIPEFNTIIGQLPDFSAIDLIRLNRMYNCTATHTLLDHCDFEKTNVCGMIQGTRDDADWAHGDSSQPEQVDHTLVGQCKGAGYFMFFNTSLGARGEAALLESRILYPKRKQQCLQFFYKMTGSPADRFEVWVRRDDNAGKVRQLAKIQTFQGDSDHNWKIAHVTLNEEKKFRYVFLGTKGDPGNSSGGIYLDDITLTETPCPAGVWTIRNISQILENTVKGDKLVSPRFYNSEGYGVGVTLYPNGRITSNSGFLGLTFHLYSGDNDAILEWPVENRQAIMTILDQEADTRNRMSLTLMFTTSKNQTSSAINGSVIWDRPSKVGVYDKDCDCFRSLDWGWGQAISHQLLKRRNFLKGDSLIIFVDFKDLTHLNRTEVPASARSTMPRGLLLQGQESPALGESSRKAMLEESLPSSLGQRHPSRQKRSVENTGPMEDHNWPQYFRDPCDPNPCQNEGTCVNVKGMASCRCVSGHAFFYAGERCQAMHVHGSLLGLLIGCIAGLIFLTFVTFSTTNGKLRQ
  binding: binds
